## Results of single-concentration screens

T. brucei: 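Whole-parasite assay of Trypanosoma brucei over 72 hours; the read-out is not stated. Tested at 30 µM. Higher reads as stronger inhibition (inferred: compounds with an IC50 in retests scored well above the rest). Values scatter widely below zero; nearly all retest evidence comes from the higher of the two concentrations used. About 64,000 compounds were tested under these conditions; 1.5% (about 940) showed 50% or more at least once.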
Toxoplasma: 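Assay of Toxoplasma gondii numbers, read through their beta-galactosidase reporter with a colour substrate. Compounds at 10 µM. The record gives no direction; the compounds picked for IC50 retests had high values, so higher reads as fewer parasites. Of about 67,000 compounds tested this way, about 260 (0.38%) reached 50% or more in at least one test.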
Leishmania in macrophages: 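Cell assay of Leishmania donovani living inside macrophages; the read-out is not stated. Compounds at 30 µM. Higher reads as stronger inhibition (inferred: compounds with an IC50 in retests scored well above the rest). About 69,000 compounds were tested under these conditions; 1.5% (about 1,000) showed 50% or more at least once.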

Results are given as percent effect. The controls that fix the scale are not given in the record; negative values are as filed. This is an unselected part of the compounds tested. Two or more numbers in one place are separate tests of the same structure; such repeats can differ widely. A dash means the value is not listed here; it may have been measured.

structure	T. brucei	Toxoplasma	Leishmania in macrophages
Cc1ccn(-c2ccccc2NCc2cccnc2)n1	-50.7	-0.2528	9.447
CN(C)c1nc(NCc2ccccc2Cn2cccn2)ncc1F	-64.78	-40.97	19.66
O=C(CSc1nc2c(cnn2CCO)c(=O)[nH]1)NC1CCCCC1	-20.69	-12.64	29.05
CNc1nc2c(c(C(=O)N3CCCC3)n1)CN(Cc1nccn1C)CC2	-7.188	5.772	20.96
CCc1nnsc1C(=O)N(C)Cc1nnc2n1CCC2	-58.53	-77.65	36.79
COc1ccc(CCNC(=O)C(C)Nc2ccc(C)c(C)c2)cc1 (stereo not given)	-44.73	-9.205	-10.42
[H][C@@]12C[C@H](c3nnc(C)o3)CN(S(=O)(=O)CC(C)C)[C@]1([H])CCO2	-32.13	-1.117	33.33
CN1CCC2(CC1)CN(C(=O)c1ccncc1)Cc1ccccc12	32.88	-6.882	15.05
COc1ccc(CN2CCC3(CC2)CCN(CC2CC2)C3=O)cc1.O=C(O)C(F)(F)F	4.733	6.336	26.87
Cc1cc(NC(=O)CN2CCc3c(nc(C(C)C)n3C)C2)n(C)n1	-16.14	13.21	4.225
Cc1nc(NCc2ccccc2)cc(C(C)Cn2nc(C)c(C)c2C)n1 (stereo not given)	-5.333	0.182	-66.25
O=C(Cn1ccc2ccccc21)N1CCC(Oc2ncccc2Br)CC1	24.44	9.266	7.801 and 33.35
CC(C)CNC(=O)N1CCC2(CCCO2)C1 (stereo not given)	-17.6	-0.1793	24.66
O=C(NC1CCCC1)c1cc(Sc2ncccn2)ccn1	3.899	12.99	-2.375
COc1ccc(C)c(NC(=O)NCc2cccc(N(C)C)n2)c1	-277.4	-3.101	-3.489
COc1ncccc1CN1CCc2[nH]nc(C(=O)N(C)C)c2C1	-4.378	-9.504	13.46
Cc1nc(-c2ccccc2)n(CC(=O)NC(C)(C)C)n1	-25.42	9.031	3.901
O=C(CCN1CCN(c2ccc3nncn3n2)CC1)NC1CCCC1	9.738	1.235	20.48
COc1ccc(OCc2nc3cc4c(cc3c(=O)o2)OCCCO4)cc1	-73.4	12.73	12.78
COC(=O)c1cc(NS(=O)(=O)c2cn(C)cn2)c(F)cc1F	-6.286	-1.724	-4.623
Cc1cccc(OCCC(=O)N2CCN(S(=O)(=O)N(C)C)CC2)c1C	-23.69	-	12.68
CC1CCN(C(=O)c2sccc2-n2cnnn2)CC1	3.715	5.692	20.2
COc1ccc(CNC(C)c2ccc3[nH]c(=O)[nH]c3c2)cc1 (stereo not given)	0.153	2.24	17.3
CC(C)(C)C(O)CN1CCN(C(=O)c2cccc3ncccc23)CC1 (stereo not given)	-23.95	-13.46	14.67
COC(=O)c1cc(OCC2CCC2)cc(C(=O)N[C@H](C)C(N)=O)c1	-74.65	12.55	18.15
Cc1nccc(CNS(=O)(=O)N2CCCC2c2ccc(C)o2)n1 (stereo not given)	-1.923	10.42	10.3
CCc1ccc(CNC(=O)CCc2nnc(-c3ccc(C)s3)o2)nc1	-3.347	-3.584	23.88
CC1CCN(Cc2cnc(S(=O)(=O)CC3CC3)n2CC2CCCO2)CC1 (stereo not given)	-20.37	1.803	-3.484
O=C(O)C(F)(F)F.[H][C@]12CCC[C@@]1(COc1ccccn1)CN(C(=O)CN(C)C)C2	-30.55	-17.13	5.893
O=C(Cn1cccn1)Nc1ccc(N2CCCCC2)cc1	-14.86	8.221	18.51
O=C(O)C(F)(F)F.[H][C@@]12CCCO[C@]1([H])[C@@H](OC)CN2Cc1ccc(C)o1	-21.85	-1.649	3.594
Cc1occc(=O)c1OCc1noc(C(=O)NCC(C)C)n1	-46.42	11.81	-2.39
[H][C@]12CCN(C(=O)C3CCCO3)CC[C@@]1([H])S(=O)(=O)N(CC(=O)N(C)C)C2 (stereo not given in full)	-61.69	-10.09	4.411
Cc1ccn(CCC(=O)NCc2ccco2)n1	10.65	-15.27	1.747
Cc1ccc(CN2Cc3ccccc3O[C@]3(CC[C@H](CO)CC3)C2)s1.Cl	37.8	-6.753	-6.622 and -9.104
Cc1cc(C)c(CNc2ncnc3ccccc23)c(=O)[nH]1	-42.61	-10.73	-29.56
O=S1(=O)CCC(CNc2cc(-c3ccccc3)nc3ccnn23)C1 (stereo not given)	27.09	-1.915	11
O=C(O)C(F)(F)F.O=C(O)C(F)(F)F.[H][C@@]12COC[C@]1(COCC(=O)N(C)C)CN(Cc1cccnc1OC)C2	-7.446	1.822	3.111
CCOC(=O)NCCC(=O)NCc1ccnc(Oc2ccc(F)cc2)c1	-19.72	-3.277	12.54
CCNc1ncc2c(n1)CN(c1ccc(OC(F)(F)F)cc1)C2=O	-6.751	64.71	23.96
CN(C)C(=O)CN1CCC2(CCCN(Cc3ccoc3)C2)C1=O (stereo not given)	-25.3	11.28	23.08
Cc1nc2c(c(NC(C)C)n1)CCN(C(=O)c1ccno1)CC2.O=C(O)C(F)(F)F	-	-14.05	15.79
Cc1nc2oc(C(=O)N3CCCC3)c(N)c2c2c1CCCC2	-41.03	-2.916	-12.79
c1ccc(-c2nc(CNC3CCc4ncnn4C3)cs2)cc1 (stereo not given)	2.9	-14.55	27.5
Cn1cc(-c2ncc3c(c2C(=O)O)CCN(CC2CC2)C3)cn1.O=C(O)C(F)(F)F.O=C(O)C(F)(F)F	-26.37	4.148	30.23
Cc1cnn(CCNCc2nccn2CC(F)(F)F)c1	-45.99	-8.229	-53.15
Cc1ccc(NS(=O)(=O)c2cc(C(=O)O)oc2C)c(Br)c1	8.227	-14.76	13.79
CC(C)CN1CCC(NC(=O)N(C)Cc2csc3ccccc23)CC1	3.924	-24.54	39.03
COCCN1CCC(CN(C)c2nc3c(s2)c(C)nn3C)C1 (stereo not given)	14.59	-3.68	23.6
C[C@H](NC(=O)c1cccc(CCC(C)(C)O)c1)C(N)=O	-	-18.79	10.59
CCOc1ccc(Cl)c(C(=O)N2CCN(c3ccncc3)CC2)n1	-3.237	14.02	31.18
CCOCC(O)CN1CCN(C(=O)C2CC2)CC1 (stereo not given)	-24.94	3.389	17.5
CC(C)N(C)S(=O)(=O)N(C)Cc1cnn(C)c1	-1.375	-6.972	1.487
CC1(C)CC(CN2CCC3(CCC(=O)N(C4CCC4)C3)CC2)CCO1 (stereo not given)	-54.26	2.901	26.24
Cn1c(Cl)cnc1CN1CCCC1c1ccc2c(c1)OCCO2 (stereo not given)	-17.02	-0.4348	-29.52
O=C(O)C(F)(F)F.O=C(O)C(F)(F)F.[H][C@@]12CCN(Cc3cnn(C)c3)[C@]1([H])CC[C@H](C(=O)NC1CC1)O2	-33.26	7.173	-15.79
O=C(Cc1cccnc1)N1CCC2(CCN(C3CCOC3)CC2)C1 (stereo not given)	-14.47	-2.833	-45.08
CCc1ccc(C(=O)N2CCCN(Cc3nccn3CC)CC2)s1	-	29.9	16.48
COCC1c2nnn(CC3CC3)c2CCN1C(=O)N1CCCC1 (stereo not given)	-234.2	-8.784	-18.38
O=C(c1ccc2cccc(F)c2n1)N1CCN(CCn2cccc2)CC1	-51.36	-1.092	-17
CC(=O)Nc1cccc([C@H]2C[C@@H](NC(C)=O)CCO2)c1	-0.7268	-4.369	-22.72
O=C(O)C(F)(F)F.O=C(O)C(F)(F)F.[H][C@@]12CN(CC3CCOCC3)C[C@@]1([H])N(Cc1ccncc1)C(=O)CO2	-6.288	-42.64	5.405
Cc1ccc2nnc(C(=O)NCCCn3cccn3)nc2c1	-	10.61	10.91
CCO[C@H]1CN(C)C[C@@H]1NC(=O)c1cc(C)nc2ccc(C)cc12	49.89	-7.832	18.13

From ChEMBL document CHEMBL3988442, “University of Dundee, Small-Polar-MMV Screening Library” (2021).